# Library screening results

Amino acid sequences for entries named in this document (tags omitted).
UniProt E9BF75, entry or part of it: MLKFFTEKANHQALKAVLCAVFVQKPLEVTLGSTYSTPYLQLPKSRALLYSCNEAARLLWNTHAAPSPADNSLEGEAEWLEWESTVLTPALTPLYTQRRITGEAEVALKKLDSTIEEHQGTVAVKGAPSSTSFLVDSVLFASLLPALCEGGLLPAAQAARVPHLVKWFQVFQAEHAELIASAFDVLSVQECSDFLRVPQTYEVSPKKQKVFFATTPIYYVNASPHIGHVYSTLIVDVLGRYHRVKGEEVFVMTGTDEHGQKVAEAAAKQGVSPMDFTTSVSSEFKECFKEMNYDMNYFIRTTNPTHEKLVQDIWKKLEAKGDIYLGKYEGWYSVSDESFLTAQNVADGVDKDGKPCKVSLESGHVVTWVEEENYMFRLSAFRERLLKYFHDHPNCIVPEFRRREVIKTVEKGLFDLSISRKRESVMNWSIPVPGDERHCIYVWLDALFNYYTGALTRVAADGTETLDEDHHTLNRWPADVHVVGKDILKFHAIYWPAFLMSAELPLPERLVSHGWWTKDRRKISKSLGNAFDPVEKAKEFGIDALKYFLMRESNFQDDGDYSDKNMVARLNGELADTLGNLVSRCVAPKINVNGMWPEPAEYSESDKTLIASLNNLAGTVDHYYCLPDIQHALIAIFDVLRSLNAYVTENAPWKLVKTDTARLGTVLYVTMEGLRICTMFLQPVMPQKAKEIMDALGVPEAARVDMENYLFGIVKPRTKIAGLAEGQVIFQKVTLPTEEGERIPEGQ

Source: ChEMBL document CHEMBL3988442, “University of Dundee, Small-Polar-MMV Screening Library” (2021).

Results are percentages, as filed.
The record does not define 0% and 100%; most values in the screen are far below 50% and negative numbers occur (in some assays of this library far below -100).
The compounds are a random part of those screened.

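Primary screen of methionyl-tRNA synthetase; the read-out is not stated. Target: Methionyl-tRNA synthetase (putative), Leishmania donovani (UniProt E9BF75). The test concentration is not given. The values are filed as inhibition. About 68,000 compounds were tested under these conditions; 0.035% (about 24) showed 50% or more at least once.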

{"compound": "CSCCCNC(=O)c1coc(Cn2cnc3ccccc32)n1", "inhibition": 7.554}
{"compound": "CC(C)(C)n1cc(C(=O)O)c(-c2ccc(F)cc2F)n1", "inhibition": 13.1}
{"compound": "Cc1c(C(=O)N2CCC(C(=O)c3nc4ccccc4s3)CC2)cnn1C", "inhibition": 6.395}
{"compound": "CC(C1CC1)N(C(=O)CNc1ccc(C#N)cc1)C1CC1", "stereo": "centres undefined", "inhibition": 2.507}
{"compound": "CC(C)(C)CN1CC(COc2ccccc2)Oc2ccncc2S1(=O)=O", "stereo": "centres undefined", "inhibition": 9.459}
{"compound": "Cc1ccc(F)cc1S(=O)(=O)NCc1[nH]ncc1Br", "inhibition": 14.49}
{"compound": "CCCC(C)(C)NC(=O)c1cnc(CC)s1", "inhibition": 8.901}
{"compound": "O=C(NCc1ccco1)[C@H]1C[C@H]2OCC[C@H]2N(C(=O)c2ccncc2)C1", "inhibition": 7.95}
{"compound": "CCSCc1nc(O)c2nnn(C3CCN(Cc4ccco4)CC3)c2n1", "inhibition": 8.1}
{"compound": "Fc1ccc(CNc2ccccc2Cn2cncn2)cc1", "inhibition": 14.09}
{"compound": "Cn1cc(C[C@H]2[C@@H](O)CCN2C(=O)c2ccc[nH]2)cn1", "inhibition": 21.43}
{"compound": "Cc1nc(C)n(CC2CCCN2Cc2cn3ccccc3c2C#N)n1", "stereo": "centres undefined", "inhibition": 9.704}
{"compound": "Cc1cc(CNc2ccccc2N2CCCCC2)no1", "inhibition": 4.192}
{"compound": "COc1ccccc1OCCC(=O)N1CCCC1Cn1cc(C)cn1", "stereo": "centres undefined", "inhibition": 12.5}
{"compound": "Cc1cnc(CN(C)C2CCN(Cc3nc4ccccc4s3)C2)o1", "stereo": "centres undefined", "inhibition": 14.74}
{"compound": "Cc1nc(NC2CCCC2)cc(C2CCN2C(=O)c2ccccn2)n1", "stereo": "centres undefined", "inhibition": 19.77}
{"compound": "Cc1noc(C)c1CN(Cc1ccccc1)C(C)C", "inhibition": 0.3484}
{"compound": "COc1ccc(CN2C[C@@H](CN(C)C)[C@@H](CO)C2)c(Cl)c1OC", "inhibition": 8.741}
{"compound": "O=C(NCc1nnc2n1CCCCC2)N1CCc2sccc2C1", "inhibition": 13.19}
{"compound": "Cn1cc(C(=O)N[C@@H]2CN(Cc3ccoc3)[C@@H]3CCCO[C@@H]32)cn1", "inhibition": 7.273}
{"compound": "CCc1cc(NCCNC(C)=O)nc(N2CCOCC2)n1", "inhibition": 8.099}
{"compound": "O=C(c1ccccn1)N1CCCC2(CCN(c3ccsc3)C2=O)C1", "stereo": "centres undefined", "inhibition": -0.6849}
{"compound": "NS(=O)(=O)CCN1CCOC(c2ccsc2)C1", "stereo": "centres undefined", "inhibition": 7.853}
{"compound": "Cc1nc(CC(C)C)cc(C(=O)N2C[C@@H](CN(C)C)[C@@H](CO)C2)n1", "inhibition": 15.41}
{"compound": "O=S(=O)(NC1CCCCC12OCCO2)c1cc(Cl)cc(Cl)c1", "stereo": "centres undefined", "inhibition": 9.353}
{"compound": "Cc1ccc(CNC2CCCN(Cc3noc(C4CC4)n3)C2)s1", "stereo": "centres undefined", "inhibition": 6.145}
{"compound": "Cc1noc(C)c1CCC(=O)N1CCN(Cc2cscn2)CC1", "inhibition": 16.39}
{"compound": "Cc1cnn(C2CCCN(C(=O)c3cn4ccccc4n3)C2)c1", "stereo": "centres undefined", "inhibition": 10.26}
{"compound": "CC(C)N(Cc1ccc(C#N)cc1)C(=O)Nc1ccccn1", "inhibition": 4.696}
{"compound": "Cc1nc(CN(C)Cc2cn[nH]c2-c2ccc(F)cc2)c[nH]1", "inhibition": 7.013}
{"compound": "CCc1[nH]ncc1C(=O)N1CCCN(Cc2nccn2C(C)C)CC1", "inhibition": 20.7}